Test results reported in the supplement of paper PMC6411743.
± gives the standard deviation of the averaged measurements. The list shows a part of the results.

Chains of the proteins cited; added tags and fusions are not shown. Lines headed by an entry give the natural chain unless they say otherwise; changes in a name come on top.
UniProt Q9HB07: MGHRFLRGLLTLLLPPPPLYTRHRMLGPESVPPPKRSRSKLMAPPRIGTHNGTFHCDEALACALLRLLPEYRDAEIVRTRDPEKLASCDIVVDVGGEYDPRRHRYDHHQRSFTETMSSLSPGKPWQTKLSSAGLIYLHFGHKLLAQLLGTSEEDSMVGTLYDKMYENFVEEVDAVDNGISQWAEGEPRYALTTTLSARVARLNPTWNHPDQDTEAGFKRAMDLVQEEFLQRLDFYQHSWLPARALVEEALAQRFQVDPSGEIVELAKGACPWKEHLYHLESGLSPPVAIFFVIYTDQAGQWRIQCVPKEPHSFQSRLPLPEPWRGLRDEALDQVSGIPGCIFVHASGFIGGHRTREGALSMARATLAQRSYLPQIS
UniProt Q9HBM0: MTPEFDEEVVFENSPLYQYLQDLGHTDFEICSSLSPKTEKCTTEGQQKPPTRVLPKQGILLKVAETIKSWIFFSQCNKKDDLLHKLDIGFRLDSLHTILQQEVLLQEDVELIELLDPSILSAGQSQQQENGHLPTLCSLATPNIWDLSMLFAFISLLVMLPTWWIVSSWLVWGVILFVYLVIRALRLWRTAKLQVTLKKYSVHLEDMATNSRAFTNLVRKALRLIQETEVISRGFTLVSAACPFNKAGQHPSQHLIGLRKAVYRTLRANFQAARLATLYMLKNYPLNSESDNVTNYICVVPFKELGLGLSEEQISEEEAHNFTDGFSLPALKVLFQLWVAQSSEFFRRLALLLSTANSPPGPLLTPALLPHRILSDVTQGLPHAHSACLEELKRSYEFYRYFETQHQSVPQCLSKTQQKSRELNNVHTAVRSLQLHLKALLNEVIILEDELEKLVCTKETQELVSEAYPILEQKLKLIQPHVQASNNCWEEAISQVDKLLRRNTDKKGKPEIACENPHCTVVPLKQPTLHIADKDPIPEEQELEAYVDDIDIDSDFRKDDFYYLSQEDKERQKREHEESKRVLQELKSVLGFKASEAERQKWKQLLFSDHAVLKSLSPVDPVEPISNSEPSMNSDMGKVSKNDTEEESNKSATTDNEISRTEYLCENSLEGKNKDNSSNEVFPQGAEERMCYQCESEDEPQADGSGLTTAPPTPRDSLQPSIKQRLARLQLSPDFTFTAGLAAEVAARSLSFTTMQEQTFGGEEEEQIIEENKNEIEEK
UniProt Q8N9N8: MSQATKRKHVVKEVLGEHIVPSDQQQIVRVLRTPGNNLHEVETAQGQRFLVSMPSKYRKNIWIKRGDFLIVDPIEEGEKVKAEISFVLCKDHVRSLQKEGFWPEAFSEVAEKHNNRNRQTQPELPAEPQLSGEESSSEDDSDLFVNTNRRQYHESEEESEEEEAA
UniProt Q96MG8: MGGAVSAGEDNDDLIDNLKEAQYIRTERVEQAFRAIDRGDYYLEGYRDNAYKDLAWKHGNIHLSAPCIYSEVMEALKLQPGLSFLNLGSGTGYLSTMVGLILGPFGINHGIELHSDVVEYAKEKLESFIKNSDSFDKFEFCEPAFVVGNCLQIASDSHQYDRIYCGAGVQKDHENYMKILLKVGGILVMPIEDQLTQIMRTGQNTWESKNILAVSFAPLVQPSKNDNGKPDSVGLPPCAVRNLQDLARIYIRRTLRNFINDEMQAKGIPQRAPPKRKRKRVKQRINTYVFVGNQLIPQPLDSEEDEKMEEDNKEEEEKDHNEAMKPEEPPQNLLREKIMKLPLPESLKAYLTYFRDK
UniProt P51784: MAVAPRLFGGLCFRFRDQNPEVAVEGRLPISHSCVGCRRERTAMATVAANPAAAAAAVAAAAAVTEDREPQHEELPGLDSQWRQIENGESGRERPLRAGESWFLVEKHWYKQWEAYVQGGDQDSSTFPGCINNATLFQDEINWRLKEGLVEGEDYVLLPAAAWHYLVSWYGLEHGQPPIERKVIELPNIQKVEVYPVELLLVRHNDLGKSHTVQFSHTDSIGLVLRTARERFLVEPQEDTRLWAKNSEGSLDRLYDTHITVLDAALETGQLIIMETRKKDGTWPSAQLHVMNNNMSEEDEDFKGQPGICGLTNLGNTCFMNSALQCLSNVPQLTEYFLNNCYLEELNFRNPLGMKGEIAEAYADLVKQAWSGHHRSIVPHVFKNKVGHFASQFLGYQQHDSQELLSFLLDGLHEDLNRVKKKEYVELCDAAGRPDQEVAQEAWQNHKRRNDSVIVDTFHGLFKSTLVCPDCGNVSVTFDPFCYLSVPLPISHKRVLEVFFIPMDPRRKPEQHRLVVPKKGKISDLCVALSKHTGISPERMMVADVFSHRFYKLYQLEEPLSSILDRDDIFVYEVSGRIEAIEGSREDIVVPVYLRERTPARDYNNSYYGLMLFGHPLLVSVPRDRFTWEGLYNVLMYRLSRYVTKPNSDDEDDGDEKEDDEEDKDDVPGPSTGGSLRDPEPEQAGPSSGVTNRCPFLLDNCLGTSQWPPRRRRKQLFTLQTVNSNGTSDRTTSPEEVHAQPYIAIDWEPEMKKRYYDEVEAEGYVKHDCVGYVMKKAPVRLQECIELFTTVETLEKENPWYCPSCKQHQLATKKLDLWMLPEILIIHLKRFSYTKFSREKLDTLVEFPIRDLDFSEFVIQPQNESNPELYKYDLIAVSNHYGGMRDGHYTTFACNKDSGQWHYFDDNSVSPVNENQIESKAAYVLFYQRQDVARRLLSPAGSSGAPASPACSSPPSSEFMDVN
UniProt P33121: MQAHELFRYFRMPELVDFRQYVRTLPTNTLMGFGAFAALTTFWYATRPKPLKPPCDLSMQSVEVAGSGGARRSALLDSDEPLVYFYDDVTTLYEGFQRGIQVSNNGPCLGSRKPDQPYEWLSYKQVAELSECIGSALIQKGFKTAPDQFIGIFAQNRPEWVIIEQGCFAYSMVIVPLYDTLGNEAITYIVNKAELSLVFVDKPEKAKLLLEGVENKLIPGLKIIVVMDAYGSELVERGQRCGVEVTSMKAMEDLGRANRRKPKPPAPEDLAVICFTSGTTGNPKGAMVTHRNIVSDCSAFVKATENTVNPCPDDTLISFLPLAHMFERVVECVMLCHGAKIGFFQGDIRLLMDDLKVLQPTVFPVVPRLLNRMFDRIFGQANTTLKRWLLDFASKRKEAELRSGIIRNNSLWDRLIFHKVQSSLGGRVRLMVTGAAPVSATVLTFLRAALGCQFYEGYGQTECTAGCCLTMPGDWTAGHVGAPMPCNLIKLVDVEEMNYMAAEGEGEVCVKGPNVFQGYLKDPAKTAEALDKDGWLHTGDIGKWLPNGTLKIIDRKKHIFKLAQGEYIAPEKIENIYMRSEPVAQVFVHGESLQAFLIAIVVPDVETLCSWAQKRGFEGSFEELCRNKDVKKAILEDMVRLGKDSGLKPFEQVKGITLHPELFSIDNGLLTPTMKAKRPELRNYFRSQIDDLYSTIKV
UniProt Q13889: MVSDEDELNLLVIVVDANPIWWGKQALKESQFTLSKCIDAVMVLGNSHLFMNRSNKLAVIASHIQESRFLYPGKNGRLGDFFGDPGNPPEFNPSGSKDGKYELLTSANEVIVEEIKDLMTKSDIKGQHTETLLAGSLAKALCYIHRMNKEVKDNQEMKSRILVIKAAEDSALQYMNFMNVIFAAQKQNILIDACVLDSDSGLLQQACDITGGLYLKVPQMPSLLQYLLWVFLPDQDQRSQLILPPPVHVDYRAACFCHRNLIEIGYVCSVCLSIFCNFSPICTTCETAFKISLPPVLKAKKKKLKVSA
UniProt Q96RN5: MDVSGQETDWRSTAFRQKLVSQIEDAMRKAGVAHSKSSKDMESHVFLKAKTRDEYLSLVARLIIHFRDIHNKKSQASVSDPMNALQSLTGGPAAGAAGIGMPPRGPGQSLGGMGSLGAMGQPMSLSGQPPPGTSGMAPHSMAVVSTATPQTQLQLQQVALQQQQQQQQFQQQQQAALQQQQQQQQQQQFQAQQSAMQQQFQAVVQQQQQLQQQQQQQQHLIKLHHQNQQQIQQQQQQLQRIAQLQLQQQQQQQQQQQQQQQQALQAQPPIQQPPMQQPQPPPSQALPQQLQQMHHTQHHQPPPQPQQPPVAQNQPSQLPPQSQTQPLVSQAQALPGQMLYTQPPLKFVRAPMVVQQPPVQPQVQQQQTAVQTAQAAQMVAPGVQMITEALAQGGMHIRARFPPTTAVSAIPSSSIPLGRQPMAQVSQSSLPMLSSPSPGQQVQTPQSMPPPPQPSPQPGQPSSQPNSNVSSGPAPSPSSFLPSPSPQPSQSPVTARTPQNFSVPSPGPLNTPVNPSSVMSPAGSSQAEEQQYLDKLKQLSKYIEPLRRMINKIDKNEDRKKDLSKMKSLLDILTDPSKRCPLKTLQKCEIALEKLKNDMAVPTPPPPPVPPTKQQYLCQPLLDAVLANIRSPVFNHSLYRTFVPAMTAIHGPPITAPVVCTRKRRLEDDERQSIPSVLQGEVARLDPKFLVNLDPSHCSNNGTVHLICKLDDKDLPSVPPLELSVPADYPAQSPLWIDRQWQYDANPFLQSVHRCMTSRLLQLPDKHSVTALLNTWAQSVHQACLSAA
UniProt O00217, whole entry: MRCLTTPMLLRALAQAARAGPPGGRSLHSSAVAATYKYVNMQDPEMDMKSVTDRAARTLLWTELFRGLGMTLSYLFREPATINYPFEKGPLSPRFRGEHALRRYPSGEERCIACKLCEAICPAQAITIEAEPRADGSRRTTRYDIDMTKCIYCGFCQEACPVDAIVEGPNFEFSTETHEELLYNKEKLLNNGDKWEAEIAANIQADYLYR
UniProt O00559: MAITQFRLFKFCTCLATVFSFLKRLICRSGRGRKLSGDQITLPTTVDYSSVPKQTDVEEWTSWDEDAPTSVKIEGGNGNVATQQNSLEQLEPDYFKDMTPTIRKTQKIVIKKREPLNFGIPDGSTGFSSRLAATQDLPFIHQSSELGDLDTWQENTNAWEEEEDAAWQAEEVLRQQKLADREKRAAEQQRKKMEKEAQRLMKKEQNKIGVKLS
UniProt Q9H2H9: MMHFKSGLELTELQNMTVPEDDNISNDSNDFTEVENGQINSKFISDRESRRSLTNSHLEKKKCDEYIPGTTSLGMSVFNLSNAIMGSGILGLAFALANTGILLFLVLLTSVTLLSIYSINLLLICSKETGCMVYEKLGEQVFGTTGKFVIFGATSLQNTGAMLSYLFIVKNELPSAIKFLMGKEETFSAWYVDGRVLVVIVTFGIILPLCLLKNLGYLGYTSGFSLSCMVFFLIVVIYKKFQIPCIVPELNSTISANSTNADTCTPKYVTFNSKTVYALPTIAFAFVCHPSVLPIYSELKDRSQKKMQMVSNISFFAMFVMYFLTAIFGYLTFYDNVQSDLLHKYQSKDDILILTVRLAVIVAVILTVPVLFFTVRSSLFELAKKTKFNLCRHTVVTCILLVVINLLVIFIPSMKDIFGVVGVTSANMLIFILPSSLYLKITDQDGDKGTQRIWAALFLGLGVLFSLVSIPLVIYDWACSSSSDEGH

Compound: Nc1nc2c(ncn2[C@@H]2O[C@H](COP(=O)(O)OP(=O)(O)OP(=O)(O)O)[C@@H](O)[C@H]2O)c(=O)[nH]1 [guanosine triphosphate]
Test: NP40-soluble protein abundance relative to vehicle (solubility fold change) (ratio); higher = more soluble protein in presence of GTP
Outline: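 Crude Jurkat lysate, prepared by Dounce homogenisation, was exposed to eight concentrations from 0.1 to 10 mM for 10 min at room temperature and then 3 min at 37 °C. Solubilisation used 0.8% NP40 with benzonase for 60 min at 4 °C, followed by ultracentrifugation and TMT labelling of the supernatant for LC-MS/MS. After vsn normalisation of intensities, each value is the fold change against the detergent-processed vehicle within each replicate, across three independent experiments.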

Target | NP40-soluble protein abundance (concentration: 0.1mM) | NP40-soluble protein abundance (concentration: 0.5mM) | NP40-soluble protein abundance (concentration: 1mM) | NP40-soluble protein abundance (concentration: 2mM) | NP40-soluble protein abundance (concentration: 4mM) | NP40-soluble protein abundance (concentration: 6mM) | NP40-soluble protein abundance (concentration: 8mM) | NP40-soluble protein abundance (concentration: 10mM)
G3V1P3 and related entries (UniProt Q969J3+G3V1P3) | 0.981 ± 0.11 | 0.915 ± 0.04 | 1.01 ± 0.079 | 1.01 ± 0.06 | 0.991 ± 0.033 | 1 ± 0.026 | 0.9928 ± 0.0048 | 1.01 ± 0.076
F5H5G1 and related entries (UniProt Q13449) | 0.872 ± 0.041 | 0.811 ± 0.043 | 0.868 ± 0.081 | 0.829 ± 0.033 | 0.89 ± 0.035 | 0.949 ± 0.091 | 0.908 ± 0.026 | 0.953 ± 0.014
E7ETU5 and related entries (UniProt P29558) | 0.915 ± 0.077 | 0.945 ± 0.017 | 0.982 ± 0.057 | 0.956 ± 0.087 | 0.927 ± 0.041 | 0.943 ± 0.088 | 0.952 ± 0.02 | 0.958 ± 0.06
F8VQQ3 and related entries (UniProt Q9HB07) | 1.02 ± 0.018 | 0.994 ± 0.028 | 0.938 ± 0.04 | 0.915 ± 0.042 | 0.91 ± 0.059 | 0.905 ± 0.05 | 0.882 ± 0.05 | 0.866 ± 0.078
F8W8C2 and related entries (UniProt Q9HBM0) | 0.869 ± 0.14 | 0.967 ± 0.095 | 0.948 ± 0.11 | 0.972 ± 0.014 | 0.975 ± 0.082 | 0.92 ± 0.17 | 0.954 ± 0.018 | 0.889 ± 0.049
E9PLI6 and related entries (UniProt Q8N9N8) | 0.978 ± 0.032 | 0.971 ± 0.1 | 0.974 ± 0.061 | 0.931 ± 0.083 | 0.98 ± 0.12 | 0.902 ± 0.11 | 0.958 ± 0.08 | 0.948 ± 0.071
F5H1M8 and related entries (UniProt Q96MG8) | 0.938 ± 0.035 | 0.906 ± 0.027 | 0.951 ± 0.029 | 0.867 ± 0.017 | 0.844 ± 0.01 | 0.902 ± 0.0096 | 0.831 ± 0.028 | 0.812 ± 0.084
E7EU96 and related entries (UniProt P68400) | 1 ± 0.038 | 1.05 ± 0.05 | 0.969 ± 0.036 | 0.98 ± 0.031 | 1.01 ± 0.038 | 1.01 ± 0.056 | 1.01 ± 0.043 | 0.987 ± 0.032
G3V542 and related entries (UniProt Q13509) | 0.911 ± 0.025 | 1 ± 0.024 | 1 ± 0.099 | 1.02 ± 0.096 | 1.06 ± 0.025 | 0.919 ± 0.031 | 0.934 ± 0.073 | 0.9579 ± 0.0074
E9PRF4 and related entries (UniProt Q15047) | 0.977 ± 0.12 | 0.93 ± 0.12 | 0.904 ± 0.055 | 0.909 ± 0.039 | 0.873 ± 0.04 | 0.881 ± 0.035 | 0.904 ± 0.051 | 0.862 ± 0.017
G5E9A6 and related entries (UniProt P51784) | 1.009 ± 0.0061 | 1.03 ± 0.044 | 0.947 ± 0.0056 | 0.95 ± 0.046 | 0.935 ± 0.054 | 0.917 ± 0.034 | 0.915 ± 0.03 | 0.883 ± 0.05
E7EPM6 and related entries (UniProt P33121) | 1.01 ± 0.024 | 1.02 ± 0.05 | 0.961 ± 0.014 | 0.976 ± 0.046 | 0.944 ± 0.052 | 0.92 ± 0.033 | 0.901 ± 0.019 | 0.89 ± 0.054
E7EWW0 and related entries (UniProt Q7Z3J2) | 1.09 ± 0.013 | 1.07 ± 0.037 | 1.04 ± 0.046 | 1.03 ± 0.066 | 1.04 ± 0.077 | 1.03 ± 0.051 | 1.03 ± 0.11 | 0.986 ± 0.053
F5GWD3 and related entries (UniProt Q13889) | 1.25 ± 0.046 | 1.11 ± 0.037 | 0.995 ± 0.038 | 1.13 ± 0.091 | 1.08 ± 0.071 | 1.13 ± 0.098 | 1.1 ± 0.027 | 1.11 ± 0.027
G3V5N8 and related entries (UniProt Q9HBF4) | 1.05 ± 0.084 | 1.09 ± 0.083 | 1.05 ± 0.2 | 1.05 ± 0.12 | 0.965 ± 0.21 | 0.961 ± 0.066 | 0.979 ± 0.13 | 1.02 ± 0.17
E9PEL3 and related entries (UniProt P61513) | 1.03 ± 0.041 | 0.979 ± 0.07 | 0.975 ± 0.12 | 0.96 ± 0.13 | 0.889 ± 0.19 | 0.858 ± 0.19 | 0.574 ± 0.05 | 0.843 ± 0.14
G3V1P5 and related entries (UniProt Q96RN5) | 0.81487 ± 9.8e-05 | 0.933 ± 0.044 | 0.818 ± 0.057 | 0.958 ± 0.041 | 0.956 ± 0.07 | 0.948 ± 0.034 | 0.877 ± 0.046 | 1.08 ± 0.079
E9PPW7 and related entries (UniProt O00217) | 1.05 ± 0.13 | 1.12 ± 0.15 | 1.11 ± 0.18 | 1.09 ± 0.12 | 1.08 ± 0.095 | 1.09 ± 0.13 | 1.18 ± 0.21 | 1.1 ± 0.13
E9PN10 and related entries (UniProt O00559) | 0.948 ± 0.1 | 0.876 ± 0.11 | 0.902 ± 0.1 | 0.93 ± 0.13 | 0.858 ± 0.024 | 0.833 ± 0.11 | 0.901 ± 0.028 | 0.926 ± 0.087
E9PGC0 and related entries (UniProt P20936) | 1.05 ± 0.069 | 1.04 ± 0.091 | 1.02 ± 0.11 | 0.997 ± 0.072 | 0.909 ± 0.027 | 0.931 ± 0.032 | 0.961 ± 0.048 | 0.899 ± 0.031
F8VX04 and related entries (UniProt Q9H2H9) | 0.959 ± 0.2 | 0.968 ± 0.11 | 0.874 ± 0.16 | 0.874 ± 0.1 | 0.985 ± 0.23 | 0.858 ± 0.19 | 0.89 ± 0.15 | 0.912 ± 0.18
F5H0R1 and related entries (UniProt Q9H6E5) | 1 ± 0.044 | 0.96 ± 0.072 | 0.981 ± 0.033 | 0.993 ± 0.053 | 0.962 ± 0.059 | 0.964 ± 0.048 | 0.982 ± 0.062 | 1.01 ± 0.036

Shown comma-delimited: part of the list above.
Target,NP40-soluble protein abundance (concentration: 0.1mM),NP40-soluble protein abundance (concentration: 0.5mM),NP40-soluble protein abundance (concentration: 1mM),NP40-soluble protein abundance (concentration: 2mM),NP40-soluble protein abundance (concentration: 4mM),NP40-soluble protein abundance (concentration: 6mM),NP40-soluble protein abundance (concentration: 8mM),NP40-soluble protein abundance (concentration: 10mM)
E7EU96 and related entries (UniProt P68400),1 ± 0.038,1.05 ± 0.05,0.969 ± 0.036,0.98 ± 0.031,1.01 ± 0.038,1.01 ± 0.056,1.01 ± 0.043,0.987 ± 0.032
G3V542 and related entries (UniProt Q13509),0.911 ± 0.025,1 ± 0.024,1 ± 0.099,1.02 ± 0.096,1.06 ± 0.025,0.919 ± 0.031,0.934 ± 0.073,0.9579 ± 0.0074
